# Data as given in patent US11286281B2, “Homodetic cyclic peptides targeting alpha-4-beta-7 integrin” (priority 2017, dated 2022).
# Part of at least one peptide drawing is inferred or uncertain, most often the ends.
# Target: T1, integrin α4β7 (Mus musculus, UniProt P26011+Q00651)
# T1 construct: host or cells: TK-1 mouse T-cell lymphoma cells
# T1 sequence (Q00651 41-1039): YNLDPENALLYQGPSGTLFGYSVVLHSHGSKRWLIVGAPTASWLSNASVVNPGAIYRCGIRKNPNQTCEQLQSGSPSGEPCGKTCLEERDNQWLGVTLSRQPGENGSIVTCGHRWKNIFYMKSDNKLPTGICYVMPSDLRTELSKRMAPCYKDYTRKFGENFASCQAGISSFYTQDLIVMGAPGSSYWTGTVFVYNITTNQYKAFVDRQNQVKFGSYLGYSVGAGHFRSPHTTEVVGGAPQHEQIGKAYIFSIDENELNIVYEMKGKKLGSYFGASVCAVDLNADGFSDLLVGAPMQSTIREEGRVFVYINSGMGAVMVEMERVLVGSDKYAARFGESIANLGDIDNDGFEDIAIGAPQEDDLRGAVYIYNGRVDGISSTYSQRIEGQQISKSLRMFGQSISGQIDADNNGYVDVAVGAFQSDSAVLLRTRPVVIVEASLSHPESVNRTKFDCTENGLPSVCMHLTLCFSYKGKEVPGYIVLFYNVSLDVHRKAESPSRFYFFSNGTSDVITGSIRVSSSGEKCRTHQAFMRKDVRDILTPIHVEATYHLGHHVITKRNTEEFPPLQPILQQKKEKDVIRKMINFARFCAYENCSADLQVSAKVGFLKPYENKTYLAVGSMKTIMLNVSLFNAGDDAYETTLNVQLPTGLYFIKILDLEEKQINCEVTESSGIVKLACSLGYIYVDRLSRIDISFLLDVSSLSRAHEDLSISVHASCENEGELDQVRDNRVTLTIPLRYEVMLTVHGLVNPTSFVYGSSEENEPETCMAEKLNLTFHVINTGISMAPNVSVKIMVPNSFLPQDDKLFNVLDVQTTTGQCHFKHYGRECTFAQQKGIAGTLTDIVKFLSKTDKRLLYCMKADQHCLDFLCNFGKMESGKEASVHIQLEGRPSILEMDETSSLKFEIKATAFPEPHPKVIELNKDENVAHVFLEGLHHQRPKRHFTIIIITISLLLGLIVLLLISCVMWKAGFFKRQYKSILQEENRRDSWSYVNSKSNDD
# T1 sequence (P26011 20-806): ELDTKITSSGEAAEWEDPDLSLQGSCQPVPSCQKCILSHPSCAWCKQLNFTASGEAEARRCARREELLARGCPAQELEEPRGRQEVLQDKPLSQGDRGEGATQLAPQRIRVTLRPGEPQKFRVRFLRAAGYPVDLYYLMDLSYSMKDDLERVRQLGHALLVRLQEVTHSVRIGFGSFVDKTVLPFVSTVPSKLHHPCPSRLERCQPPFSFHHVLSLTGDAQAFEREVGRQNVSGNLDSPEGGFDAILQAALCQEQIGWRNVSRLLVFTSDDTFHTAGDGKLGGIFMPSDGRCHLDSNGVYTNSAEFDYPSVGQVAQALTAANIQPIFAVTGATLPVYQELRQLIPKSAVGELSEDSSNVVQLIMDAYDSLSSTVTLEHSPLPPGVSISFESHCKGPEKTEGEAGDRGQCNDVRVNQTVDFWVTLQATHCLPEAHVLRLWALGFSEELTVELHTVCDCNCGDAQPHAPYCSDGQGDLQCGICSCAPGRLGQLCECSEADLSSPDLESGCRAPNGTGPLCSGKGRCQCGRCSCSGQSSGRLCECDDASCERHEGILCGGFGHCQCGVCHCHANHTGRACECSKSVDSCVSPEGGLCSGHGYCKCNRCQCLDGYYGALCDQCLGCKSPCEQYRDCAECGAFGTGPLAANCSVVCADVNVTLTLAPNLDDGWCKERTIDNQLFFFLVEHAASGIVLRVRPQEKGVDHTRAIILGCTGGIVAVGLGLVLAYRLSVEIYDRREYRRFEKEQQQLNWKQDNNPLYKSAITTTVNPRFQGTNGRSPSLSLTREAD
# Experiment: Integrin α4β7-MAdCAM mouse cell adhesion assay (TK-1 cells)
# Type: cell-based
# Details: read-out: IC50 in mouse α4β7-containing cell adhesion
# Description: TK-1 mouse T-cells lymphoma cell lines (ATCC CRL2396) were cultured in RPMI 1640 medium (HyClone SH30027.1) supplemented with 10% FBS (Seradigm) and 1% Penicillin-Streptomycin. A 96-well plate (Costar, 3603) was coated with 100 μl/well of recombinant mouse MAdCAM-1 Fc Chimera (R&D Systems, 993-MC-050) solution at 0.25 μg/ml in coating buffer (50 mM sodium carbonate, pH 9.6). The plate was incubated overnight at 4° C. and washed twice with 150 μl per well wash buffer (0.05% Tween 20 in PBS), blocked with 250 μl per well blocking buffer (1% non-fat dry milk in PBS), and incubated for 2 hours at room temperature. TK-1 cells were resuspended at 10 million cells/ml in PBS containing […] and incubated at 37° C. for 30 min in a 50 ml tube. […] The plate was emptied by inverting and blotting on paper towels and washed manually twice with PBS. 100 μl PBS was then added to each well. The fluorescence was read (Ex495/Em515) using a plate reader (Tecan Infinite 1000). To calculate the dose response, the fluorescence value of control wells not containing cells was subtracted from each test well.
smiles,measurement,value
CC(C)C[C@@H]1NC(=O)c2ccc(-c3ccc(N4CCN(C(=O)c5ccccc5-c5ccccc5C(=O)N5CCN(c6ccc(-c7ccc8cc7CNC(=O)[C@@H]7CCCN7C(=O)[C@H](C)NC(=O)[C@H]([C@@H](C)O)NC(=O)[C@H](CC(=O)O)NC(=O)[C@H](CC(C)C)NC8=O)cc6)CC5)CC4)cc3)c(c2)CNC(=O)[C@@H]2CCCN2C(=O)[C@H](C)NC(=O)[C@H]([C@@H](C)O)NC(=O)[C@H](CC(=O)O)NC1=O [Compound 16],IC50,~28 nM
